In the experiment the target is Purified GST (glutathione S-transferase). Nature of the experiment: pull-down; GST pull-down as described (Poon et al., 2004); GST fusion proteins purified on glutathione sepharose beads as bait, HA-Pdzd2(C) as prey.

No constants are given. Whether binding was seen depends on the method and setting. Binding seen in cells or lysates may run through a third protein. Sequences can lack the tags named with a protein.

B1: haemagglutinin (HA)-tagged rat Pdzd2 C-terminal fragment (201aa), GFP-fused (domain or fragment, UniProt Q9QZR8 2567-2766)
chain: GGADVEPKSVMVHRVFSQGVASQEGTVSRGDFLLSVNGTSLAGLAHSEVTKVLHQAELHKHALMIIKKGNDQPGPSFKQEPPSANGKGPFPRRTLPLEPGAGRNGAAHDALCVEVLKTSAGLGLSLDGGKSSVSGEGPLVIKRVYKGGAAERAGTIEAGDEILAINGKPLVGLVHFDAWNIMKSVPEGPVQLVIRKHRDS
In the case of B1, the binding result is recorded as “no binding”.

The values are drawn from paper PMC2764382.
